{"source": "patent US5686416A", "about": "“Increasing blood-brain barrier permeability with permeabilizer peptides” (priority 1993, dated 1997)", "system": "blood-brain barrier", "assay": "Uptake of radiolabelled substances of different molecular weights into the brain (Table I)", "conditions": "mice, 10 minutes, mean ± s.d.", "protocol": "The animals were euthanatized 10 minutes after the co-administration and the radioactivity present in brain was measured as described previously for ^14 C sucrose.", "data": [{"smiles": "CCC[C@@H]1C[C@@H](C(=O)N[C@@H]([C@H]2O[C@H](SC)[C@H](O)[C@@H](O)[C@H]2O)[C@H](C)Cl)N(C)C1", "note": "[^14 C-Clindamycin, Clindamycin]", "values": [{"measurement": "% Injected Dose, + A-7 (dose 1 μg)", "setting": "labelled molecule i.v. with 1 μg permeabilizer A-7 (footnote *)", "value": "0.140 ± 0.082", "unit": "% Injected Dose"}, {"measurement": "% Injected Dose, Control", "setting": "labelled molecule i.v. with saline", "value": "0.085 ± 0.051", "unit": "% Injected Dose"}]}]}
